Some of the results follow.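 Rule for the calls: active = dose-dependent thermal stabilisation significant by F-test of dose-response against flat model at 10% FDR; inactive = not significant.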
Each target was assayed with Nc1nc2c(ncn2[C@@H]2O[C@H](COP(=O)(O)OP(=O)(O)OP(=O)(O)O)[C@@H](O)[C@H]2O)c(=O)[nH]1 (assay: dose-dependent thermal stabilisation call (2D-TPP, DLPTP, 10% FDR) (binary (1 = stabilised)); higher = stabilised by the compound). Conditions: system: Jurkat gel-filtered lysate; concentration range 1-500 µM.
Description: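 2D thermal proteome profiling in gel-filtered Jurkat E6.1 lysate (2 mg/ml) treated with NaGTP (0, 1, 10, 100, 500 uM) for 10 min at room temperature, then heated 3 min at one of 12 temperatures (42-63.9 C). Soluble protein was quantified by TMT10 MS. The value is the DLPTP call of the paper: dose-dependent thermal stabilisation over all temperatures at 10% FDR (F-test of a dose-response against a flat model); one experiment, one call per tested protein.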

Protein sequences, listed by entry. Tags and fused reporters are not part of them. Lines headed by an entry give the natural chain unless they say otherwise; changes in a name come on top.
UniProt Q5VZL5: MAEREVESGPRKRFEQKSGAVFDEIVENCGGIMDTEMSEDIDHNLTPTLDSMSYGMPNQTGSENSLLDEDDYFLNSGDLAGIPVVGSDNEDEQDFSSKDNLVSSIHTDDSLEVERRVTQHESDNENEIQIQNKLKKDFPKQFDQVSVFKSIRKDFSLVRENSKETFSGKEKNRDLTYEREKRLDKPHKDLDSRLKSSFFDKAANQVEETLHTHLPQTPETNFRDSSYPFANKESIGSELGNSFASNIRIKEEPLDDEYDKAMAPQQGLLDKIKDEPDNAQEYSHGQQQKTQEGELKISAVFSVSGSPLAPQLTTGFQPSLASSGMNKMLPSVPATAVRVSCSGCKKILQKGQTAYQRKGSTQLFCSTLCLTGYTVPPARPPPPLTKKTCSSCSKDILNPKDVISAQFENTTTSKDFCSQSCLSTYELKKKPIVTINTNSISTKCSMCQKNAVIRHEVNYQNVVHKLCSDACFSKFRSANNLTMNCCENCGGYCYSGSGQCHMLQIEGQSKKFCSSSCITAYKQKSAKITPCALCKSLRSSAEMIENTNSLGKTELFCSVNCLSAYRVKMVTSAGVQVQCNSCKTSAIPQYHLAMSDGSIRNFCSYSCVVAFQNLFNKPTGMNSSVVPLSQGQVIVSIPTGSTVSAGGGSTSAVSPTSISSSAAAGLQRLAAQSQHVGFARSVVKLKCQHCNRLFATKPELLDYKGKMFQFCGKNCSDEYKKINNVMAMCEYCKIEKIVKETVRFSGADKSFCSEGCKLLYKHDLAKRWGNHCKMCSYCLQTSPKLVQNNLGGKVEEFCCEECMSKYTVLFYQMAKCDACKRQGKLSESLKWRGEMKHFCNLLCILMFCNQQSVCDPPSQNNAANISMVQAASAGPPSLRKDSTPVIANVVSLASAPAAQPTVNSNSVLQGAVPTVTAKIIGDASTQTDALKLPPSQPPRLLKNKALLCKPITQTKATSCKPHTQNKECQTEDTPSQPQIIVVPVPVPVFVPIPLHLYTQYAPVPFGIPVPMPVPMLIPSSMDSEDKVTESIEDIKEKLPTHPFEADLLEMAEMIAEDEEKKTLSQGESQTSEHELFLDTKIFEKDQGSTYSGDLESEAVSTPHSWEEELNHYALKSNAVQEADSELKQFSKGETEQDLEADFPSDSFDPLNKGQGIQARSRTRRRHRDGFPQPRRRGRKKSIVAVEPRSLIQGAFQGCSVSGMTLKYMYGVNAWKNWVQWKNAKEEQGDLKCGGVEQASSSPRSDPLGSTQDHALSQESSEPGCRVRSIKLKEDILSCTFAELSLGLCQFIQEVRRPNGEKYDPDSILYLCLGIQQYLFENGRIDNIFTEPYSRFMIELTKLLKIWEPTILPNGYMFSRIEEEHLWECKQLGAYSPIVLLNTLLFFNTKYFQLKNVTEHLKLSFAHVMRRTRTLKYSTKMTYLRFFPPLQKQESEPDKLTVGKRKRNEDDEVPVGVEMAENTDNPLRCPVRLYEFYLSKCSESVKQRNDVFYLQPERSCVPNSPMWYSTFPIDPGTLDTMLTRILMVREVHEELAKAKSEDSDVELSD
UniProt Q5VUA4: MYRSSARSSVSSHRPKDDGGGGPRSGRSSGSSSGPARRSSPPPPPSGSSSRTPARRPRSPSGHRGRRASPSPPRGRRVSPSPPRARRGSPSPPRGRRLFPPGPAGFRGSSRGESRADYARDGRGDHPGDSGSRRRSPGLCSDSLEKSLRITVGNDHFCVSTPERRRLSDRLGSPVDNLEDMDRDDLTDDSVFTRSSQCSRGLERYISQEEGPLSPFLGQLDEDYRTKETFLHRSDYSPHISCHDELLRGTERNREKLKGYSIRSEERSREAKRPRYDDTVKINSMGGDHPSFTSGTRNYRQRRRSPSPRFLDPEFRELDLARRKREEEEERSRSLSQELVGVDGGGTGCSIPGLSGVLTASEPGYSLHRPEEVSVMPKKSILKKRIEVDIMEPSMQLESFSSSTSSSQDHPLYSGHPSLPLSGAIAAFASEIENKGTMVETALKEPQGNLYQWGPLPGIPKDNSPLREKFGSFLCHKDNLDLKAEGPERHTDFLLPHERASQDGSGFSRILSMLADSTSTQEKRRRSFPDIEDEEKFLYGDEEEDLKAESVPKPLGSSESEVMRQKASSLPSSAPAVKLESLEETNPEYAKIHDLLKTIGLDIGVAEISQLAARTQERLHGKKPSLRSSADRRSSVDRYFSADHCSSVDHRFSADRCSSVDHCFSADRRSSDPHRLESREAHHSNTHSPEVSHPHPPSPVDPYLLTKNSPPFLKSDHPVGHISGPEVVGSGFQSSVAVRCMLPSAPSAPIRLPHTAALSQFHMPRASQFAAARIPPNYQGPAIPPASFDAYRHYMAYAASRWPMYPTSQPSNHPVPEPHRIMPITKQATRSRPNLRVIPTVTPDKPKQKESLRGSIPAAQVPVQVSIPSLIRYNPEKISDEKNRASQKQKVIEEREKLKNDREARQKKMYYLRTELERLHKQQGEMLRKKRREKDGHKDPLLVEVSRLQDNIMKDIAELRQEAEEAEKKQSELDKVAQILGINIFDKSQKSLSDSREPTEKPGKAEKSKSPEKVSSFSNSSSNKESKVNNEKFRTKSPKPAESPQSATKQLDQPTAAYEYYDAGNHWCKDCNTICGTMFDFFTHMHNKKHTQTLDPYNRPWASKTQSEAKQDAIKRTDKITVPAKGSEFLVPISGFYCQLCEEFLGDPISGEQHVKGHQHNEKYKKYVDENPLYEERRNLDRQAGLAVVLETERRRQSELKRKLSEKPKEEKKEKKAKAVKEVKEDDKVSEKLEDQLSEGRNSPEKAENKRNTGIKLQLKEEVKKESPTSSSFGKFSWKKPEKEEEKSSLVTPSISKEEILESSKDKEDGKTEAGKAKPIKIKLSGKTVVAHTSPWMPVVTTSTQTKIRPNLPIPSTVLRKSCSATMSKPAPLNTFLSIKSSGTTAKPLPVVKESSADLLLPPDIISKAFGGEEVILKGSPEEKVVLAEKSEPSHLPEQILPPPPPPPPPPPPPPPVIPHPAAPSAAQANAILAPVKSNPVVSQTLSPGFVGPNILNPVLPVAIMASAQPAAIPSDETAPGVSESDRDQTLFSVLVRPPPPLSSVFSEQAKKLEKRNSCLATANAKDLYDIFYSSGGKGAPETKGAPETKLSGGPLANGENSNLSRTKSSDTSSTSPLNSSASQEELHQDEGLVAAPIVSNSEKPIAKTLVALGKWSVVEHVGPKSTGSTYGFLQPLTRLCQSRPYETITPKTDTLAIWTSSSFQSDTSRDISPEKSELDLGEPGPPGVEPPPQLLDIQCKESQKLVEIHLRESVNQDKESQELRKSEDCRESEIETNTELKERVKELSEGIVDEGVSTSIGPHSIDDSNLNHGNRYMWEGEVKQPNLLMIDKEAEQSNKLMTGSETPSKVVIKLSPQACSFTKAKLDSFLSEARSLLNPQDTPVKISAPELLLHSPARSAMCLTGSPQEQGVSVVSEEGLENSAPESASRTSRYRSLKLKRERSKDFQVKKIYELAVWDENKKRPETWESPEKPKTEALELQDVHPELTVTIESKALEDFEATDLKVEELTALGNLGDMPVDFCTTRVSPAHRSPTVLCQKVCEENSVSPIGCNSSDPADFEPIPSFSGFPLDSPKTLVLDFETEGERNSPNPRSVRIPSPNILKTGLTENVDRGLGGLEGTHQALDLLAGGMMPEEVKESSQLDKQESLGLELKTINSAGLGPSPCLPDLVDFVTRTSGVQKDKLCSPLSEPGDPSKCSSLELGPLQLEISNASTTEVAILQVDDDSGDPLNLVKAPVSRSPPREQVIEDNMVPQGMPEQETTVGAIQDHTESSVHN
UniProt Q96JP5: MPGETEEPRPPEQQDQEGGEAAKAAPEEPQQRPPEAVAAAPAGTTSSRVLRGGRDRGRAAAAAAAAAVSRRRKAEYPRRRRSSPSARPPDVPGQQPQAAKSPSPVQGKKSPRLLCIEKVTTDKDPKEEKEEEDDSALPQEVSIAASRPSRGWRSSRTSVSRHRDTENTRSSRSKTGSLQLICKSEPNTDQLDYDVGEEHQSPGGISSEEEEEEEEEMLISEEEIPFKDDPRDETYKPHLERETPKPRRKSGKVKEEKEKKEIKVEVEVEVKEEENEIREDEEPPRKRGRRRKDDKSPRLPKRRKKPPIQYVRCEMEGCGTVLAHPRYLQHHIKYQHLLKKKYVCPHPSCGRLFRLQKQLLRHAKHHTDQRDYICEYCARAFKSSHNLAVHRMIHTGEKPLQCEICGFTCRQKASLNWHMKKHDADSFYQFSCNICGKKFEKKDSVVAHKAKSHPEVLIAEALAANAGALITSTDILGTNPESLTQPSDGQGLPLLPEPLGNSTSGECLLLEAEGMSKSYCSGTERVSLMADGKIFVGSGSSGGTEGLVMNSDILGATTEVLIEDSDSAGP
UniProt O75362: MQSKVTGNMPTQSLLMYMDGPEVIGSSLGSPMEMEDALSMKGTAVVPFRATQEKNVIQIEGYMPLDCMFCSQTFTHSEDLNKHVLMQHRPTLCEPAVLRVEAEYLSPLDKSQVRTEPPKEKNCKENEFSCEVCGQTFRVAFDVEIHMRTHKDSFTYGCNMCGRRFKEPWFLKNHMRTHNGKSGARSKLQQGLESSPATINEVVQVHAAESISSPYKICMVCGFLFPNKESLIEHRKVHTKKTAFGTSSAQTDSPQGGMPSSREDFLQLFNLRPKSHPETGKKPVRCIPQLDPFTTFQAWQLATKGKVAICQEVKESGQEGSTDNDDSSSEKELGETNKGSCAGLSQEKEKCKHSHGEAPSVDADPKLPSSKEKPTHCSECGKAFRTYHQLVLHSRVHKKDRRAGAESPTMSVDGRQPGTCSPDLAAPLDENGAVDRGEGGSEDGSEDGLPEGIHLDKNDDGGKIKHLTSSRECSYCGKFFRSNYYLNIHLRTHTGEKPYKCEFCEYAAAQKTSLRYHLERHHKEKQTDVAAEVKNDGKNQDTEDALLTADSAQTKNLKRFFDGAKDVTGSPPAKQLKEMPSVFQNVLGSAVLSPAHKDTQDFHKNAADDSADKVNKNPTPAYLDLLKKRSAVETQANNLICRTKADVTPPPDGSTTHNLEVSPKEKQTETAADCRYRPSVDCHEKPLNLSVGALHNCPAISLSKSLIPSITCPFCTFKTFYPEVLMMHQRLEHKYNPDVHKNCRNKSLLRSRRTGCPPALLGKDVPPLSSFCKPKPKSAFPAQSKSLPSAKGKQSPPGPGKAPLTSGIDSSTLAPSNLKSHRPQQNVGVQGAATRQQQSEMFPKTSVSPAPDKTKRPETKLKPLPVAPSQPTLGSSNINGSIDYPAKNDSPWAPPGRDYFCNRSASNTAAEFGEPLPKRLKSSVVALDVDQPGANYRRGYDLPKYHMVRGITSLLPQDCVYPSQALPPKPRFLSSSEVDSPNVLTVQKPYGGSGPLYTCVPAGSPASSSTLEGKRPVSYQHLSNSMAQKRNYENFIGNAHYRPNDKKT
UniProt P52739: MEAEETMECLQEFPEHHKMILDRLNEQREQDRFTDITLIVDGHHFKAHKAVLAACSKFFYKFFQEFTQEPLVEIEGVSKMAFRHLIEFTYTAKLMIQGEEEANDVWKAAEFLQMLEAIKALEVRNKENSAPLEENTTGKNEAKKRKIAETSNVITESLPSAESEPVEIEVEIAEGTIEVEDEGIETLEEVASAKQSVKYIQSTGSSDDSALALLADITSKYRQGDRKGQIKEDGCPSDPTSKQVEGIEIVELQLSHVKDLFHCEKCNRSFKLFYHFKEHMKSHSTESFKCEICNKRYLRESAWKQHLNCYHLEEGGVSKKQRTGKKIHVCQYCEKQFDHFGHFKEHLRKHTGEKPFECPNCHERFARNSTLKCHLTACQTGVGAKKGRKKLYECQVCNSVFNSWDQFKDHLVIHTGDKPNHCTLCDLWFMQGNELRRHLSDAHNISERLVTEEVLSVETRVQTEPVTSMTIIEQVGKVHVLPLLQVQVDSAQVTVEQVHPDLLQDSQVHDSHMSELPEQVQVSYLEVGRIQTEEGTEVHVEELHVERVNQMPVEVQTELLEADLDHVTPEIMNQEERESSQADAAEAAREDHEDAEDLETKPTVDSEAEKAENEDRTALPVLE
UniProt P17026: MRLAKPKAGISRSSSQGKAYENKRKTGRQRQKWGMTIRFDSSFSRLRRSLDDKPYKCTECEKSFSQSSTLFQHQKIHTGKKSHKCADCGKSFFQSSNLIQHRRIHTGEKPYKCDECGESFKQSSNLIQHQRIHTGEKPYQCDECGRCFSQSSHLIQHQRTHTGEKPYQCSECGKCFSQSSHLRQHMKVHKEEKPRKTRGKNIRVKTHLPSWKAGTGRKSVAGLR
UniProt Q9Y5V0: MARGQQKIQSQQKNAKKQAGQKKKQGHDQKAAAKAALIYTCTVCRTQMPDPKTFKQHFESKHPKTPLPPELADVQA

Row | Target | dose-dependent thermal stabilisation call
1 | ZNF646 (UniProt O15015) | inactive: 0
2 | ZNF830 (UniProt Q96NB3) | inactive: 0
3 | ZMYM4 (UniProt Q5VZL5) | inactive: 0
4 | ZNF318 (UniProt Q5VUA4) | inactive: 0
5 | ZMYM1 (UniProt Q5SVZ6) | inactive: 0
6 | ZNF521 (UniProt Q96K83) | inactive: 0
7 | ZFP91 (UniProt Q96JP5) | inactive: 0
8 | ZMIZ1 (UniProt Q9ULJ6) | inactive: 0
9 | ZNF277 (UniProt Q9NRM2) | inactive: 0
10 | ZZZ3 (UniProt Q8IYH5) | inactive: 0
11 | ZNF217 (UniProt O75362) | inactive: 0
12 | ZFYVE21 (UniProt Q9BQ24) | inactive: 0
13 | ZFP1 (UniProt Q6P2D0) | inactive: 0
14 | ZNF644 (UniProt Q9H582) | inactive: 0
15 | ZNF292 (UniProt O60281) | inactive: 0
16 | ZNF511 (UniProt Q8NB15) | inactive: 0
17 | ZFYVE9 (UniProt O95405) | inactive: 0
18 | ZWILCH (UniProt Q9H900) | active: 1
19 | ZNF8 (UniProt P17098) | inactive: 0
20 | ZNF316 (UniProt A6NFI3) | inactive: 0

Shown as comma-separated lines: entries from further up
Row,Target,dose-dependent thermal stabilisation call
8,ZMIZ1 (UniProt Q9ULJ6),inactive: 0
9,ZNF277 (UniProt Q9NRM2),inactive: 0
10,ZZZ3 (UniProt Q8IYH5),inactive: 0

(further entries)

Row | Target | dose-dependent thermal stabilisation call
21 | ZNF687 (UniProt Q8N1G0) | inactive: 0
22 | ZNF131 (UniProt P52739) | inactive: 0
23 | ZFYVE1 (UniProt Q9HBF4) | inactive: 0
24 | ZNF335 (UniProt Q9H4Z2) | inactive: 0
25 | ZNF787 (UniProt Q6DD87) | inactive: 0
26 | ZNF22 (UniProt P17026) | active: 1
27 | ZNF24 (UniProt P17028) | inactive: 0
28 | ZPR1 (UniProt O75312) | inactive: 0
29 | ZNHIT6 (UniProt Q9NWK9) | inactive: 0
30 | ZZEF1 (UniProt O43149) | inactive: 0
31 | ZFYVE19 (UniProt Q96K21) | inactive: 0
32 | ZMYND8 (UniProt Q9ULU4) | inactive: 0
33 | ZNF438 (UniProt Q7Z4V0) | inactive: 0
34 | ZKSCAN1 (UniProt P17029) | inactive: 0
35 | ZSCAN26 (UniProt Q16670) | inactive: 0
36 | ZNF706 (UniProt Q9Y5V0) | inactive: 0
37 | ZNF106 (UniProt Q9H2Y7) | inactive: 0
38 | ZNF592 (UniProt Q92610) | inactive: 0
39 | ZNF507 (UniProt Q8TCN5) | inactive: 0
40 | ZFPL1 (UniProt O95159) | inactive: 0

From the supplement of paper PMC7666118
